Experimental data reported in paper PMC2809091.
No constants are given. Whether binding was seen depends on the method and setting.

Amino acid sequences for entries named in this document (tags omitted).
UniProt P69949: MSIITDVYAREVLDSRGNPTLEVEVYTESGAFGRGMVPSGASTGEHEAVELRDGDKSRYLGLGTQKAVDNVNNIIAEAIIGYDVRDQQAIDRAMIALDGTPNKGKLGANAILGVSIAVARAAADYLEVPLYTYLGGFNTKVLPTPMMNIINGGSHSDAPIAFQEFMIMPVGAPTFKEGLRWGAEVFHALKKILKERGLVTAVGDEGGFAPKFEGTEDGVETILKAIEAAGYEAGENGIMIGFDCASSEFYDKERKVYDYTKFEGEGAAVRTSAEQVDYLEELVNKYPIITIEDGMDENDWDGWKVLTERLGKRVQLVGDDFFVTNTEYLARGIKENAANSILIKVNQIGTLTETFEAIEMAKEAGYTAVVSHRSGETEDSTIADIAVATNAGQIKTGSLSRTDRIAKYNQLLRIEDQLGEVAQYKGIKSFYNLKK

Molecular target: wild type octameric enolase from S. pyogenes (S. pyogenes) (UniProt P69949)
Experiment: AUC; sedimentation velocity, 15°C; 2.7 µM enolase incubated 18 h at 15°C in TME with NaClO4 (up to 0.4 M); octamer to monomers; both purified

## wild type octameric enolase from S. pyogenes (from UniProt P69949 1-435) (enzyme)
  binding: no binding (condition: with 0.4 M NaClO4)
